Key:
[1] = Small angle x-ray diffraction of carotenoids in POPC membranes; assay type: physicochemical; details: 20° C., control 55
[2] = Small-angle x-ray diffraction of COX-2 inhibitors in membrane lipid bilayers; assay type: physicochemical; details: drug to phospholipid 1:10 (<5% by mass), cholesterol:phospholipid 0.2:1
[3] = 74% RH, C/P 0.2, carotenoids/POPC 1/15

Row | Structure (SMILES) | d Space [1, 3] [Å] | d Space ([1]; 87% RH, carotenoids/POPC 1/15) [Å] | region of decrease in electron density (hydrocarbon core), distance from the membrane center [2] | region of increase in electron density, distance from the center of the membrane [2]
1 | CC(C)=CCC/C(C)=C/C=C/C(C)=C/C=C/C(C)=C/C=C/C=C(C)/C=C/C=C(C)/C=C/C=C(\C)CCC=C(C)C [Lycopene] | 59 | 65 | – | –
2 | CC1=CC(O)CC(C)(C)C1/C=C/C(C)=C/C=C/C(C)=C/C=C/C=C(C)/C=C/C=C(C)/C=C/C1=C(C)CC(O)CC1(C)C (stereo not drawn) [Lutein, β,ε-carotene-3,3′-diol] | 57 | 60 | – | –
3 | CC1=C(/C=C/C(C)=C/C=C/C(C)=C/C=C/C=C(C)/C=C/C=C(C)/C=C/C2=C(C)C[C@@H](O)CC2(C)C)C(C)(C)C[C@H](O)C1 [Zeaxanthin] | 57 | 58 | – | –
4 | CC1=C(/C=C/C(C)=C/C=C/C(C)=C/C=C/C=C(C)/C=C/C=C(C)/C=C/C2=C(C)C(=O)[C@@H](O)CC2(C)C)C(C)(C)C[C@H](O)C1=O [Astaxanthin, 3,3′-dihydroxy-β,β′-carotene-4,4′-dione] | 55 | 57 | – | –
5 | CS(=O)(=O)c1ccc(C2=C(c3ccccc3)C(=O)OC2)cc1 [rofecoxib] | – | – | 0-10 Å | 22-28 Å
6 | CC1=C(/C=C/C(C)=C/C=C/C(C)=C/C=C/C=C(C)/C=C/C=C(C)/C=C/C2=C(C)CCCC2(C)C)C(C)(C)CCC1 [β-Carotene] | 57 | 61 | – | –

— patent US20080293679A1, “Use of carotenoids and/or carotenoid derivatives/analogs for reduction/inhibition of certain negative effects of COX inhibitors” (priority 2005, published 2008)
